At least one compound was matched to its structure with a doubt left.
Tested on: formation of peroxide lipids (rat brain homogenate)
Assay: activity of inhibiting formation of peroxide lipids (TBA assay, rat brain homogenate supernatant)
Assay type: biochemical, rat (Wistar)
Details: final concentration 10^-4 M, pH 7.4, 37° C., 30 minutes, malondialdehyde by TBA assay vs control, 100 µM
Procedure: With respect to the compounds of the present invention, the activity of inhibiting formation of peroxide lipids was tested according to the following procedures.
Male rats of the Wistar system having a body weight of 200 to 250 g were used. The rat brain was extracted by beheading and homogenized by 50 mM phosphate buffer solution (pH 7.4)(PBS), and centrifugal separation was conducted for 15 minutes under 1000 G. The supernatant was frozen at -30° C. and stored, and when the test was carried out, the frozen supernatant was thawed in running water and diluted with PBS so that the volume was trebled, whereby a living body sample was prepared.
Two samples were formed by adding 10 μl of a solution of the test compound (the final concentration was 10^-4 M) to 990 μl of the living body sample. One sample was incubated at 37° C. for 30 minutes and 0.2 ml of a 35% solution of perchloric acid was added to stop the reaction. The other sample was not incubated but the solution of perchloric acid was immediately added to stop the reaction. Both the reaction liquids were subjected to centrifugal separation at 3000 rpm for 15 minutes. With respect to each sample, by using 0.5 ml of the supernatant, the amount of the peroxide lipid was determined according to the TBA assay [Okawa et al., Anal. Biochem., 95. 351 (1979)], and the difference between both the measured values was determined as the amount of malondialdehyde (MDS)(the unit: nmole/mg protein). The peroxide lipid inhibition ratio was calculated from this MDA amount (A) and the control value (B) (the MDA amount obtained when the test compound was not added) according to the following formula: [formula]

Compound | Inhibition Ratio (%) (peroxide lipid inhibition ratio)
CC1CC(C)(C)N(Cc2cn(C(=O)N(C)C)cn2)c2ccccc21 (stereo not drawn) [Compound 8, 1-(N,N-dimethylcarbamoyl)-4-[1-(2,2,4-trimethyl-1,2,3,4-tetrahydroquinolyl)-methyl]imidazole] | 91.0%
c1coc(CN2CCCc3ccccc32)c1 [Compound 2, 2-[1-(1,2,3,4-tetrahydroquinolyl)methyl]furan] | 97.8%
CN(C)C(=O)n1cnc(CN2CCCc3ccccc32)c1 [Compound 7, 1-(N,N-dimethylcarbamoyl)-4-[1-(1,2,3,4-tetrahydroquinolyl)methyl]imidazole] | 51.0%

Reference: US4962200A, “Nitrogen-containing compound” (Mitsui Petrochemical Industries, Ltd., priority 1987, dated 1990)
